According to patent US20130266605A1, “PEPTIDE INHIBITORS OF CD40L SIGNALING AND USES THEREFOR” (PHYLOGICA LIMITED, priority 2010, published 2013):
Results are given in words; binding and its absence hold for the method and conditions named. Some entries that bind do so weakly or less than the wild type.

T1: CD40 ligand (UniProt P29965 108-261, limits assumed)
T1 sequence (looked up): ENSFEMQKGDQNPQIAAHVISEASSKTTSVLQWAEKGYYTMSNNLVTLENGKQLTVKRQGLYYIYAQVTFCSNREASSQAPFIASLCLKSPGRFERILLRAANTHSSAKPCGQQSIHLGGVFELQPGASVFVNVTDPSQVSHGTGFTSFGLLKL

B1: C02_40L_0803_1126 (peptide)
peptide: LAYGKSTEDKQDFLLFHVNLDPHAAQTFEFEVPLWEFGLPDDASVEVEDLLNGNRFTWHGKWQWLELDPQT
B2: C02_40L_0204_0994 (peptide)
peptide: LAYGKSTEDKQDFLLFHVNLDPHAAQTLEFEVPLWGFGLPDDASVEVEDLLNGDRFTWHGKWQWLELDPQT
B3: M06_40L_0103_0810 (peptide)
peptide: LKEIADNANVQKVAFDRYKIKYFKRDMIDCGFDERWIDEHMVSYGQGFEKV
B4: M09_40L_0105_0934 (peptide)
peptide: CYYYTENDHNYYWDDHYNSYYVVQYNHKYYWDYHYDCYYVVEKHCKYYYWNTYKEYNYWEKHKDDK
B5: C02_40L_0304_1027 (peptide)
peptide: LLGTPQNNAQAEVNLNINIGGPRYVGNYGPDFIYLDDYGFAVSWGWDYDVIR
B6: M09_40L_0204_1010 (peptide)
peptide: RNEVEWNGMERNGMEWSGMELNGTQWNEVEWSRMEWNGWEWNGMEWNGMEWNGEEWSGVE
B7: M07_40L_0104_0893 (peptide)
peptide: LWNGIIRNGMERNGMEWNGMEWNGMEWNGMEWVRIEWNGMDSNGIAWNGMDSNAMERNALEWNGMDSKAMEWNGIDWNGMEWNGLEWNHHRMESNGIIEWNRMESSNRLERNRQ
B8: M09_40L_0105_0930 (peptide)
peptide: RCYYYTENDHNYYWDDHYNSYYVVQYNHKYYWDYHYDCYYVVEKHCKYYYWNTYKEYNYWEKHKDDKYIEGTFKVVTNAAI
B9: M06_40L_0104_0837 (peptide)
peptide: LKEIADNANVQKVAFDRYKIKYFKRDMIDCGFDERWIDEHMVSYGQGFVSMG
B10: M07_40L_0104_0864 (peptide)
peptide: LSGGPDHVPHPEHSTYDFPFPDGSSCAPPGWLGGVPCFLQRYMLHQPDARGTLEPTRT
B11: M07_40L_0104_0879 (peptide)
peptide: LGGGPDHVPHPEHSTYDFPFPDGSSCAPPGWLGGVPCFLQRYMLHQPDARGTLEPTRT
B12: M07_40L_0104_0896 (peptide)
peptide: LGGGPDHVPHPEHSTYDFPFPDGSSCAPPGWLGGVPCFLQRYMLHQPDARGTLEPTRM
B13: M09_40L_0204_1006 (peptide)
peptide: LGDINPLKRIVDSRQSKRLAERYLSESYWGDVIEASDDVWELVACPVDGALDAALWDAWLESLEEG
B14: C02_40L_0803_1123 (peptide)
peptide: LWWLCYQDDEISTEATNEIGLPKYGTDEKQDALRKYYAAYFNVEGGDSGTFTDYKWDCFWAHRHAIMH
B15: C02_40L_0803_1120 (peptide)
peptide: LWWLCYQDDEISTEATNEIGLPKYGTDEKQDALRKYYAAYFNVEGGDSGTFTDYKWDCFWAHRHAIMH
B16: C02_40L_0205_0998 (peptide)
peptide: LGHIWASDVENAASFEPVDVGDEEAYKAGLLWLERLTMSDNGLRQLALFEWDEDGNLTKEWHAE
B17: M08_40L_0105_0910 (peptide)
peptide: LGHIWASDVENAASFEPVDVGDEEAYKAGLLWLERLTMSDNGLRQLALFEWDEDGNLTKEWHAE
B18: M08_40L_0105_0912 (peptide)
peptide: LVCTYSYQNDAYRQFFEPDDESALLQELSEYLDDHGSEPIIHYGGNYFDEQCLSRRFDE
B19: C03_40L_0203_1175 (peptide)
peptide: PRMEWNVLQWNGMESNELVSNGTEWNGMDWNAMEWNRMEWNGMEWNQSEWNGRELNGMEWKGMEWNGMEWNGTNPSGME
B20: M07_40L_0104_0889 (peptide)
peptide: LPKYGTDEKQDALRRYYAAYFNVEGGDSGTFTDYKWDCLWSCDNRGGRIVCLRENRYTSE
B21: C02_40L_0803_1145 (peptide)
peptide: RGIEVGDPSSGNETGPTGKPFTTTIPSEVGATEISGSGKEIQPAQLMNDLPNSESAEQVRERTRDLVQWFNYALPDFVFVEEDSGYWGDTQDFSMPTGDDYELNTCIFSWYWCGLWSCDNRGGRIVCLRENRYTSEYTGW
B22: C02_40L_0603_1077 (peptide)
peptide: LWIGINTNGMQWNGMQWQRMEWNGMEWHKPEWYGMEWNGMEWNGMEWKGIE
B23: M09_40L_0105_0935 (peptide)
peptide: LWIGINTNGMQWNGMQWQRMEWNGMEWHKPEWYGMEWNGMEWNGMEWKGIE
B24: M09_40L_0105_0931 (peptide)
peptide: LWIGINTNGMQWNGMQWQRMEWNGMEWHKPEWYGMEWNGMEWNGMEWKGIE
B25: M08_40L_0105_0902 (peptide)
peptide: LLGEDMIEQLGRAHMSWGLGSADRWDLDQTTGIITWTFPDKTAAAPAQILGSFSPGSGSWLWAWANK
B26: C02_40L_0204_0990 (peptide)
peptide: FKPKQLLGLTATPERMDGLNVQDEFFEGRIAAELRLWEALENDLLCPFHYFGIPDGTDLT
B27: M06_40L_0104_0819 (peptide)
peptide: FKPKQLLGLTATPERMDGLNVQDEFFEGRIAAELRLWEALENDLLCPFHYFGIPDGTDLT
B28: C02_40L_0205_0996 (peptide)
peptide: LLGTPQNNAQAEVNLNINIGGPRYVGNYGPDFIYLDDYGFAVSWGWDYDVIRLGNFYFIYRDGYWF
B29: M07_40L_0104_0885 (peptide)
peptide: REVLQLDDHVHVSPALAVQELLAKPHVGRRAVSVDVIAGHRPGDFLLRATLAMDPRVKPADDGGGWSWWFI
B30: C02_40L_0504_1062 (peptide)
peptide: RIPETRKAQAALATKYGIYGFCYYHYWFNGRRILESPVDAMLESGEPDFPFMLCWANENWT

What follows are binders tested against T1, CD40 ligand (assay: phage display screen on CD40L).

binding, binds:
B1
B2
B3
WDRPWYSPVTNWSPHCRGLD [M06_40L_0104_0835]
B4
B5
B6
B7
YKEYNYWEKHKDDKCYWNEKDTKN [M08_40L_0105_0904]
B8
YKEYNYWEKHKDDKCYWNEKDTKN [M09_40L_0105_0924]
B9
LWDVKTYVSDQDGTGWDLVEQYQNKYGMPNPDGTIGKTLWLDYIQ [M07_40L_0104_0874]
LSCSWCSFFPDTKSVSCQD [M06_40L_0104_0838]
B10
B11
B12
RWDRPWYSPVTNWSPHCRGLD [M06_40L_0103_0805]
PFPDGSSCAPPGWLGGVPCFLQRYMLHQPDARGTLEPTRT [M06_40L_0104_0822]
PFPDGSSCAPPGWLGGVPCFLQRYMLHQPDARGTLEPTRT [M07_40L_0104_0884]
PFPDGSSCAPPGWLGGVPCFLQRYMLHQPDARGTLEPTRT [M06_40L_0104_0830]
PFPDGSSCAPPGWLGGVPCFLQRYMLHQPDARGTLEPTRT [M07_40L_0103_0860]
B13
B14
B15
B16
B17
B18
B19
B20
PQPEHSTYDFPFPDGSSCAPPGWLGGVPCFLQRYMLHQPDARGTLEPTRT [M07_40L_0104_0866]
HLPRPGFCDARSHGDSNFEDLFYFILCGTH [C03_40L_0103_0942]
LSCSWCSFFPDTKSVSCQD [M06_40L_0103_0812]
B21
B22
B23
B24
YKEYNYWEKHKDDKCYW [M08_40L_0105_0903]
B25
YKEYNYWEKHKDDKCYWNDGSTR [M09_40L_0105_0922]
HYTENDHNYYWDDHYNSYYVVQYNHKYYWDYHYDCYYVVEKHC [M07_40L_0103_0847]
B26
B27
B28
RCEDQVDVIAGHRPGDFLLRATLAMDPRVKPADDGGGWSWWFL [M07_40L_0104_0883]
B29
B30
